Data published in publication PMC11130243.

Chains of the proteins cited; added tags and fusions are not shown.
UniProt P29597: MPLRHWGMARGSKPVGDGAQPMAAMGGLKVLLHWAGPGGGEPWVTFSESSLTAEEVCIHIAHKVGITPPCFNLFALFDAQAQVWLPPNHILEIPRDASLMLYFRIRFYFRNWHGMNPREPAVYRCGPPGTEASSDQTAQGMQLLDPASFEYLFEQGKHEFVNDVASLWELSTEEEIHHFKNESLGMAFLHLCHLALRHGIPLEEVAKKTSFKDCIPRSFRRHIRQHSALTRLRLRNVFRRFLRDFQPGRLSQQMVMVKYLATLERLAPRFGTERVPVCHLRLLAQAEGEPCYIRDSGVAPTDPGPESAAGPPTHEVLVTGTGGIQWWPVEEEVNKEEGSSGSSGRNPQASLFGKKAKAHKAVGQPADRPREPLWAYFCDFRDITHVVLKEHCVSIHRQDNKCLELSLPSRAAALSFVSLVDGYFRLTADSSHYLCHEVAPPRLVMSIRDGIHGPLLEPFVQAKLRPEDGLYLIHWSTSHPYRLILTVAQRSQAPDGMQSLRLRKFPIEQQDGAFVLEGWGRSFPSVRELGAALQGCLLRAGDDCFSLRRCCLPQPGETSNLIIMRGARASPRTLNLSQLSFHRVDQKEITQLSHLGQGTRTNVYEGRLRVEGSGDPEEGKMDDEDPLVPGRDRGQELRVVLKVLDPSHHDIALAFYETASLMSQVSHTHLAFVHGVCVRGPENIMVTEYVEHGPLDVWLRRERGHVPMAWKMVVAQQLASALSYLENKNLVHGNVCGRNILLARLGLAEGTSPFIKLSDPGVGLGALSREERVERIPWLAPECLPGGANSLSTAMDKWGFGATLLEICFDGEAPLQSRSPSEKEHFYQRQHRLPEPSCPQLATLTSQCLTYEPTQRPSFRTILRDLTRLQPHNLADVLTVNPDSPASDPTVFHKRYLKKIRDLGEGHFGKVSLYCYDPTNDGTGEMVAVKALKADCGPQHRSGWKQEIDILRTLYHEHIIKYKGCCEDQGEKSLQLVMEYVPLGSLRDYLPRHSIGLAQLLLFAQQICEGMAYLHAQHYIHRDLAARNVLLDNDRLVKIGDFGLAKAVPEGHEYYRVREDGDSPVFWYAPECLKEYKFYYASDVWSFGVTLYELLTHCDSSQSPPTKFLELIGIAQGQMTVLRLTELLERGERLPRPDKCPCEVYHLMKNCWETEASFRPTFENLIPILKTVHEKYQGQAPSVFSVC
UniProt P23458: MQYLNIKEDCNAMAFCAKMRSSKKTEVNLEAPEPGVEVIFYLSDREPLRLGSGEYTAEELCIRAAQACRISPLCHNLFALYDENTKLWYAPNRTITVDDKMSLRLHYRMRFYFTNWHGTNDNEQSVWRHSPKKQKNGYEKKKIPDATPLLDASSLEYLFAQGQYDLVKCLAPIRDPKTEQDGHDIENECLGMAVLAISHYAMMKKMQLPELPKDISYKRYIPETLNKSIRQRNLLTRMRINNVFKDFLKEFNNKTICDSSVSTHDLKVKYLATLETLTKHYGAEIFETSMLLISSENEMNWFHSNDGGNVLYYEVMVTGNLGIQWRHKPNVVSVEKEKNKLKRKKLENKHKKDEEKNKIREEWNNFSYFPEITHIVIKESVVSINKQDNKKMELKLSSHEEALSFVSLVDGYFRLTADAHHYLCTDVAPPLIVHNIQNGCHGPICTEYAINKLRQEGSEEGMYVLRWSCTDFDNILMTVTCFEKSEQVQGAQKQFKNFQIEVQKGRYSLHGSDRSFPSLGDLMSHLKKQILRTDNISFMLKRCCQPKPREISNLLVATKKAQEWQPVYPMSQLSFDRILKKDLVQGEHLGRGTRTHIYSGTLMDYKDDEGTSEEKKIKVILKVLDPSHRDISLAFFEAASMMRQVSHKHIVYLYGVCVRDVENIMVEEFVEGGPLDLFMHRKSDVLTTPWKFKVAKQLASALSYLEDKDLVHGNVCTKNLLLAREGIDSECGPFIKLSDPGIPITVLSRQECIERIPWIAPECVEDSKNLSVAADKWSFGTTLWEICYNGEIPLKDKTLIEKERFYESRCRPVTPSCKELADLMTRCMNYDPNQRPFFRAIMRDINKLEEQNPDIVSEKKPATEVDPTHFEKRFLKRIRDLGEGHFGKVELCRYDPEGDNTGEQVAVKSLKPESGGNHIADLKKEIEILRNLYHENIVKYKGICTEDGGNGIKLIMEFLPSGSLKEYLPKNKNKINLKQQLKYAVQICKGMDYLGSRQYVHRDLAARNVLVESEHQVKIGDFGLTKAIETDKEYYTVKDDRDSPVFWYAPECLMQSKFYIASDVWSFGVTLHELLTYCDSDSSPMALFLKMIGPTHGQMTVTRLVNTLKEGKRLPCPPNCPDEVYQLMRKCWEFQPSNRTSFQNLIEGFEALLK

Experiments:
Assay in all cases: proximity labelling; TurboID-tagged bait stably expressed in MRC-5/hTERT; serum-starved 20 h; 1000 IU/mL IFN-α2 for 0, 20, 60 or 120 min; 500 μM biotin for the last 15 min; RIPA lysis; streptavidin magnetic beads; label-free mass spectrometry, SAINTexpress against the similarly localized TurboID-GFP control (FC ≥ 4 stringent or FC ≥ 2 relaxed)
[1] = target: TurboID-V5-TYK2 (stable in MRC-5/hTERT) (human) (UniProt P29597)
TurboID-V5-IRF9 (human) = target: T1, TurboID-V5-IRF9 (human) (UniProt Q00978)
T1 sequence: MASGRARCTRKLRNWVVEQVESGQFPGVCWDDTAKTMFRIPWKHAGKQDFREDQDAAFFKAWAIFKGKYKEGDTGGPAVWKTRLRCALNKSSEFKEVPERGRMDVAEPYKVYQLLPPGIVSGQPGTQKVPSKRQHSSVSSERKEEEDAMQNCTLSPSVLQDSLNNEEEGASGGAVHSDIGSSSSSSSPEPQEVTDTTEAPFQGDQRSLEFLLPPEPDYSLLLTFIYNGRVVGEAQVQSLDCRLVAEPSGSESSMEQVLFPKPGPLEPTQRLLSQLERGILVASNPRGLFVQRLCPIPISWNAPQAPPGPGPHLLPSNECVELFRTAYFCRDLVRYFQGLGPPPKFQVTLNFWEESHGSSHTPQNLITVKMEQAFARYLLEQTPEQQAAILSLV

[2] = target: TurboID-V5-JAK1 (stable in MRC-5/hTERT) (human) (UniProt P23458)
[3] = target: TurboID-V5-STAT2 (human), P52630; settings: remark: other sources report otherwise

B1: PJA2 (endogenous, MRC-5/hTERT) (enzyme, UniProt O43164 1-708)
chain: MSQYTEKEPAAMDQESGKAVWPKPAGGYQTITGRRYGRRHAYVSFKPCMTRHERSLGRAGDDYEVLELDDVPKENSSGSSPLDQVDSSLPSEPIFEKSETEIPTCGSALNQTTESSQSFVAVHHSEEGRDTLGSSTNLHNHSEGEYIPGACSASSVQNGIALVHTDSYDPDGKHGEDNDHLQLSAEVVEGSRYQESLGNTVFELENREAEAYTGLSPPVPSFNCEVRDEFEELDSVPLVKSSAGDTEFVHQNSQEIQRSSQDEMVSTKQQNNTSQERQTEHSPEDAACGPGHICSEQNTNDREKNHGSSPEQVVRPKVRKLISSSQVDQETGFNRHEAKQRSVQRWREALEVEESGSDDLLIKCEEYDGEHDCMFLDPPYSRVITQRETENNQMTSESGATAGRQEVDNTFWNGCGDYYQLYDKDEDSSECSDGEWSASLPHRFSGTEKDQSSSDESWETLPGKDENEPELQSDSSGPEEENQELSLQEGEQTSLEEGEIPWLQYNEVNESSSDEGNEPANEFAQPAFMLDGNNNLEDDSSVSEDLDVDWSLFDGFADGLGVAEAISYVDPQFLTYMALEERLAQAMETALAHLESLAVDVEVANPPASKESIDGLPETLVLEDHTAIGQEQCCPICCSEYIKDDIATELPCHHFFHKPCVSIWLQKSGTCPVCRRHFPPAVIEASAAPSSEPDPDAPPSNDSIAEAP
binding [1]: binds

B2: GIGYF2 (protein, UniProt Q6Y7W6 1-1299)
chain: MAAETQTLNFGPEWLRALSSGGSITSPPLSPALPKYKLADYRYGREEMLALFLKDNKIPSDLLDKEFLPILQEEPLPPLALVPFTEEEQRNFSMSVNSAAVLRLTGRGGGGTVVGAPRGRSSSRGRGRGRGECGFYQRSFDEVEGVFGRGGGREMHRSQSWEERGDRRFEKPGRKDVGRPNFEEGGPTSVGRKHEFIRSESENWRIFREEQNGEDEDGGWRLAGSRRDGERWRPHSPDGPRSAGWREHMERRRRFEFDFRDRDDERGYRRVRSGSGSIDDDRDSLPEWCLEDAEEEMGTFDSSGAFLSLKKVQKEPIPEEQEMDFRPVDEGEECSDSEGSHNEEAKEPDKTNKKEGEKTDRVGVEASEETPQTSSSSARPGTPSDHQSQEASQFERKDEPKTEQTEKAEEETRMENSLPAKVPSRGDEMVADVQQPLSQIPSDTASPLLILPPPVPNPSPTLRPVETPVVGAPGMGSVSTEPDDEEGLKHLEQQAEKMVAYLQDSALDDERLASKLQEHRAKGVSIPLMHEAMQKWYYKDPQGEIQGPFNNQEMAEWFQAGYFTMSLLVKRACDESFQPLGDIMKMWGRVPFSPGPAPPPHMGELDQERLTRQQELTALYQMQHLQYQQFLIQQQYAQVLAQQQKAALSSQQQQQLALLLQQFQTLKMRISDQNIIPSVTRSVSVPDTGSIWELQPTASQPTVWEGGSVWDLPLDTTTPGPALEQLQQLEKAKAAKLEQERREAEMRAKREEEERKRQEELRRQQEEILRRQQEEERKRREEEELARRKQEEALRRQREQEIALRRQREEEERQQQEEALRRLEERRREEEERRKQEELLRKQEEEAAKWAREEEEAQRRLEENRLRMEEEAARLRHEEEERKRKELEVQRQKELMRQRQQQQEALRRLQQQQQQQQLAQMKLPSSSTWGQQSNTTACQSQATLSLAEIQKLEEERERQLREEQRRQQRELMKALQQQQQQQQQKLSGWGNVSKPSGTTKSLLEIQQEEARQMQKQQQQQQQHQQPNRARNNTHSNLHTSIGNSVWGSINTGPPNQWASDLVSSIWSNADTKNSNMGFWDDAVKEVGPRNSTNKNKNNASLSKSVGVSNRQNKKVEEEEKLLKLFQGVNKAQDGFTQWCEQMLHALNTANNLDVPTFVSFLKEVESPYEVHDYIRAYLGDTSEAKEFAKQFLERRAKQKANQQRQQQQLPQQQQQQPPQQPPQQPQQQDSVWGMNHSTLHSVFQTNQSNNQQSNFEAVQSGKKKKKQKMVRADPSLLGFSVNASSERLNMGEIETLDDY
binding (TurboID-V5-IRF9 (human)): binds

B3: OSMR (receptor, UniProt Q99650 28-979)
chain: ERLPLTPVSLKVSTNSTRQSLHLQWTVHNLPYHQELKMVFQIQISRIETSNVIWVGNYSTTVKWNQVLHWSWESELPLECATHFVRIKSLVDDAKFPEPNFWSNWSSWEEVSVQDSTGQDILFVFPKDKLVEEGTNVTICYVSRNIQNNVSCYLEGKQIHGEQLDPHVTAFNLNSVPFIRNKGTNIYCEASQGNVSEGMKGIVLFVSKVLEEPKDFSCETEDFKTLHCTWDPGTDTALGWSKQPSQSYTLFESFSGEKKLCTHKNWCNWQITQDSQETYNFTLIAENYLRKRSVNILFNLTHRVYLMNPFSVNFENVNATNAIMTWKVHSIRNNFTYLCQIELHGEGKMMQYNVSIKVNGEYFLSELEPATEYMARVRCADASHFWKWSEWSGQNFTTLEAAPSEAPDVWRIVSLEPGNHTVTLFWKPLSKLHANGKILFYNVVVENLDKPSSSELHSIPAPANSTKLILDRCSYQICVIANNSVGASPASVIVISADPENKEVEEERIAGTEGGFSLSWKPQPGDVIGYVVDWCDHTQDVLGDFQWKNVGPNTTSTVISTDAFRPGVRYDFRIYGLSTKRIACLLEKKTGYSQELAPSDNPHVLVDTLTSHSFTLSWKDYSTESQPGFIQGYHVYLKSKARQCHPRFEKAVLSDGSECCKYKIDNPEEKALIVDNLKPESFYEFFITPFTSAGEGPSATFTKVTTPDEHSSMLIHILLPMVFCVLLIMVMCYLKSQWIKETCYPDIPDPYKSSILSLIKFKENPHLIIMNVSDCIPDAIEVVSKPEGTKIQFLGTRKSLTETELTKPNYLYLLPTEKNHSGPGPCICFENLTYNQAASDSGSCGHVPVSPKAPSMLGLMTSPENVLKALEKNYMNSLGEIPAGETSLNYVSQLASPMFGDKDSLPTNPVEAPHCSEYKMQMAVSLRLALPPPTENSSLSSITLLDPGEHYC
binding [1]: binds
binding [2]: binds

Results, then the binder that gave them:

binding [3]: binds
B4: TurboID-V5-IRF9, Q00978 1-393 (protein)
chain: T1 sequence

binding [3]: binds
B5: STAT6, P42226 1-847 (protein)
chain: MSLWGLVSKMPPEKVQRLYVDFPQHLRHLLGDWLESQPWEFLVGSDAFCCNLASALLSDTVQHLQASVGEQGEGSTILQHISTLESIYQRDPLKLVATFRQILQGEKKAVMEQFRHLPMPFHWKQEELKFKTGLRRLQHRVGEIHLLREALQKGAEAGQVSLHSLIETPANGTGPSEALAMLLQETTGELEAAKALVLKRIQIWKRQQQLAGNGAPFEESLAPLQERCESLVDIYSQLQQEVGAAGGELEPKTRASLTGRLDEVLRTLVTSCFLVEKQPPQVLKTQTKFQAGVRFLLGLRFLGAPAKPPLVRADMVTEKQARELSVPQGPGAGAESTGEIINNTVPLENSIPGNCCSALFKNLLLKKIKRCERKGTESVTEEKCAVLFSASFTLGPGKLPIQLQALSLPLVVIVHGNQDNNAKATILWDNAFSEMDRVPFVVAERVPWEKMCETLNLKFMAEVGTNRGLLPEHFLFLAQKIFNDNSLSMEAFQHRSVSWSQFNKEILLGRGFTFWQWFDGVLDLTKRCLRSYWSDRLIIGFISKQYVTSLLLNEPDGTFLLRFSDSEIGGITIAHVIRGQDGSPQIENIQPFSAKDLSIRSLGDRIRDLAQLKNLYPKKPKDEAFRSHYKPEQMGKDGRGYVPATIKMTVERDQPLPTPELQMPTMVPSYDLGMAPDSSMSMQLGPDMVPQVYPPHSHSIPPYQGLSPEESVNVLSAFQEPHLQMPPSLGQMSLPFDQPHPQGLLPCQPQEHAVSSPDPLLCSDVTMVEDSCLSQPVTAFPQGTWIGEDIFPPLLPPTEQDLTKLLLEGQGESGGGSLGAQPLLQPSHYGQSGISMSHMDLRANPSW

These are yes or no findings as the source states them, for the method shown. Binding seen in cells or lysates may run through a third protein. A yes stands for co-enrichment or nearness to the bait. Other partners may have been found. For part of these data: Sequences can lack the tags named with a protein. Each block holds one binder with its values, some of them ahead of it.
